Results taken from publication PMC5674221, “Harnessing fungal nonribosomal cyclodepsipeptide synthetases for mechanistic insights and tailored engineering” (Chemical Science, 2017).

Tested on: Enterococcus faecalis ST:33700 (vancomycin-resistent)
Type: cell-based
Conditions: JMRC-No. ST:33700; Supplementary Table 5

O=C(O)c1cn(C2CC2)c2cc(N3CCNCC3)c(F)cc2c1=O [Ciprofloxacin, ciprofloxacin]
Inhibition zone diameter, Enterococcus faecalis (vancomycin-resistent): 16F
